Results are given in words; binding and its absence hold for the method and conditions named. In cells and extracts the contact can be indirect. These calls come from enrichment with a bait or labelling near it, and not all partners need be listed.

By UniProt entry, the sequences of proteins in these tests, tags left out. Residues count along the entry.
UniProt Q9Y4K0, residues 26-774: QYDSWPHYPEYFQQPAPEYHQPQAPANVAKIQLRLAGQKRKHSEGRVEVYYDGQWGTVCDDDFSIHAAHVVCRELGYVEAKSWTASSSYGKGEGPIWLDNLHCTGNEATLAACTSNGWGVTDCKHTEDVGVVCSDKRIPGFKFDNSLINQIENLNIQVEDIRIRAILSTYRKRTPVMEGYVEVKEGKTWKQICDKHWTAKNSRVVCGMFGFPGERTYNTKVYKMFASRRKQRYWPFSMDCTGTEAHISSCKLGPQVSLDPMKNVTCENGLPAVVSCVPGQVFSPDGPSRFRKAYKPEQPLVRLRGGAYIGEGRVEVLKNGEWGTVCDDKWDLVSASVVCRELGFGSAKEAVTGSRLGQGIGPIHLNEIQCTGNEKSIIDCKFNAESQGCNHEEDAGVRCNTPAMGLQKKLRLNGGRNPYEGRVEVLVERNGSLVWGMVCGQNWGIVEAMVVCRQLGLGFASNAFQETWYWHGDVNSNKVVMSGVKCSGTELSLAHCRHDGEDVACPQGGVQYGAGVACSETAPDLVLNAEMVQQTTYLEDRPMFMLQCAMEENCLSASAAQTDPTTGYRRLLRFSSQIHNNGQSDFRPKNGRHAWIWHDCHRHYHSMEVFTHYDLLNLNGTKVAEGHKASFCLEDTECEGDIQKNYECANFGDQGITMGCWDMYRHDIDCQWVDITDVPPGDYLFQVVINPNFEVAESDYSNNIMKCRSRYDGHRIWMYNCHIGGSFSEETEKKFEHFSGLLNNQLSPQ
UniProt P11021, residues 19-654: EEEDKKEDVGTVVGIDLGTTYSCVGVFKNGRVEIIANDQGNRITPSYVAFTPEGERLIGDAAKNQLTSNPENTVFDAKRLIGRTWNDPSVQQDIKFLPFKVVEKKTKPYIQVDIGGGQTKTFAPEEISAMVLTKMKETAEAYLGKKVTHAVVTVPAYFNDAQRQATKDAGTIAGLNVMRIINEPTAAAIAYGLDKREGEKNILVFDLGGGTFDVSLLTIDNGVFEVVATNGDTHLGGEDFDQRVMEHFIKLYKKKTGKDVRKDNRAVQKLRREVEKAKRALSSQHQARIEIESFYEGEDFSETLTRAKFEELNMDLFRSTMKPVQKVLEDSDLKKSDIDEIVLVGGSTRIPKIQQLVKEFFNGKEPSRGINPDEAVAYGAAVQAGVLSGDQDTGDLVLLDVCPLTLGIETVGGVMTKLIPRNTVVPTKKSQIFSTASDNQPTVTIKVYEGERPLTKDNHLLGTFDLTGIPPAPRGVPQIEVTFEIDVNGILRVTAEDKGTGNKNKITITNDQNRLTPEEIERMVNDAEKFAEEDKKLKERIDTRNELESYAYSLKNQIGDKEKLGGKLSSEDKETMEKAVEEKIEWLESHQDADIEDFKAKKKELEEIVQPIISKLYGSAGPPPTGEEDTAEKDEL

The results in this text go back to PMC5362953.

In this experiment the target is Flag-tagged version of LOXL2 (lysyl oxidase-like 2), from pcDNA3-hLOXL2-Flag (human) (UniProt Q9Y4K0). The experiment is described as follows: affinity purification with mass spectrometry; extracts of HEK293T cells transfected with pcDNA3-hLOXL2-Flag (IPH buffer: 50 mM Tris-HCl pH 8.0, 150 mM NaCl, 5 mM EDTA, 0.5% NP-40); immunoprecipitated with anti-Flag M2 affinity gel 5 h at 4 °C; proteins identified by mass spectrometry.

As to “HSPA5 (endogenous in HEK293T cells) (from UniProt P11021 19-654)”, the binding result is “binds”.
